In patent US9868746B2, “Substituted 5-aminothieno[2,3-C]pyridazine-6-carboxamide analogs as positive allosteric modulators of the muscarinic acetylcholine receptor M4” (Vanderbilt University, priority 2012, dated 2018):
Structures were worked out from names or drawings and are uncertain.

Amino acid sequences for entries named in this document (tags omitted).
UniProt P08173, whole entry: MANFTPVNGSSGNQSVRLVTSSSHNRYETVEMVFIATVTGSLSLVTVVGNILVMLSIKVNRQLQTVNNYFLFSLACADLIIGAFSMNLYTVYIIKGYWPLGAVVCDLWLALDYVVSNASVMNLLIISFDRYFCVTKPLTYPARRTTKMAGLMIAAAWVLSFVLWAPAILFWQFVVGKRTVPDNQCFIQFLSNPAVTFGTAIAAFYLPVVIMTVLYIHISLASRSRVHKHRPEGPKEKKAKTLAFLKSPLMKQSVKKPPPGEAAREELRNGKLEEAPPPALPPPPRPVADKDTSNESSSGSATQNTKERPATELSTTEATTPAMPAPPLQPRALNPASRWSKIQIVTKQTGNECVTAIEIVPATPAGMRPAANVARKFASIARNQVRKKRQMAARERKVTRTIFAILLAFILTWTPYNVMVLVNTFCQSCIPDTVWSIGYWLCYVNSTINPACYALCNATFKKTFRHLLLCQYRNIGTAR

Biological target: mAChR M4 (Homo sapiens, UniProt P08173)
Assay: mAChR M4 cell-based functional assay (calcium mobilization, potentiation of EC20 acetylcholine response)

## Cc1nnc2sc(C(=O)NC3CN(C(=O)Nc4ccc(F)cc4)C3)c(N)c2c1C [Example B351]
% ACh maximum at 30 μM
  Emax (%)*: 62%
mAChR M4 cell-based functional assay, >10,000 estimated for low potency compounds without plateau
  EC50: 24 nM
